Assay results reported in ChEMBL document CHEMBL4316593 (Eur J Med Chem, 2019).
The source gives many values for each of these; only a part stands here.

Legend:
Format in all cases: cell-based
Settings in all cases: U-87MG ATCC
[1] = Inhibition of RTK/PI3K/AKT/mTOR signaling in human U87 cells assessed as down regulation of ATP10D gene expression at cytotoxic IC50 measured after 48 hrs relative to control
[2] = Inhibition of RTK/PI3K/AKT/mTOR signaling in human U87 cells assessed as down regulation of NAV2 gene expression at cytotoxic IC50 measured after 48 hrs relative to control
[3] = Inhibition of RTK/PI3K/AKT/mTOR signaling in human U87 cells assessed as down regulation of ABCB1 gene expression at cytotoxic IC50 measured after 48 hrs relative to control
[4] = Inhibition of RTK/PI3K/AKT/mTOR signaling in human U87 cells assessed as down regulation of TAF9B gene expression at cytotoxic IC50 measured after 48 hrs relative to control
[5] = Inhibition of RTK/PI3K/AKT/mTOR signaling in human U87 cells assessed as down regulation of TUBB4B gene expression at cytotoxic IC50 measured after 48 hrs relative to control
[6] = Inhibition of RTK/PI3K/AKT/mTOR signaling in human U87 cells assessed as down regulation of ZNF101 gene expression at cytotoxic IC50 measured after 48 hrs relative to control
[7] = Inhibition of RTK/PI3K/AKT/mTOR signaling in human U87 cells assessed as down regulation of KLF10 gene expression at cytotoxic IC50 measured after 48 hrs relative to control
[8] = Inhibition of RTK/PI3K/AKT/mTOR signaling in human U87 cells assessed as down regulation of ABCA5 gene expression at cytotoxic IC50 measured after 48 hrs relative to control
[9] = Inhibition of RTK/PI3K/AKT/mTOR signaling in human U87 cells assessed as down regulation of RANBP6 gene expression at cytotoxic IC50 measured after 48 hrs relative to control
[10] = Inhibition of RTK/PI3K/AKT/mTOR signaling in human U87 cells assessed as down regulation of CFL1 gene expression at cytotoxic IC50 measured after 48 hrs relative to control
[11] = Inhibition of RTK/PI3K/AKT/mTOR signaling in human U87 cells assessed as down regulation of MORC3 gene expression at cytotoxic IC50 measured after 48 hrs relative to control
[12] = Inhibition of RTK/PI3K/AKT/mTOR signaling in human U87 cells assessed as down regulation of VCPIP1 gene expression at cytotoxic IC50 measured after 48 hrs relative to control
[13] = Inhibition of RTK/PI3K/AKT/mTOR signaling in human U87 cells assessed as down regulation of ARIH1 gene expression at cytotoxic IC50 measured after 48 hrs relative to control
[14] = Inhibition of RTK/PI3K/AKT/mTOR signaling in human U87 cells assessed as down regulation of YAP1 gene expression at cytotoxic IC50 measured after 48 hrs relative to control
[15] = Inhibition of RTK/PI3K/AKT/mTOR signaling in human U87 cells assessed as down regulation of STK40 gene expression at cytotoxic IC50 measured after 48 hrs relative to control
[16] = Inhibition of RTK/PI3K/AKT/mTOR signaling in human U87 cells assessed as down regulation of VCP gene expression at cytotoxic IC50 measured after 48 hrs relative to control
[17] = Inhibition of RTK/PI3K/AKT/mTOR signaling in human U87 cells assessed as down regulation of SART3 gene expression at cytotoxic IC50 measured after 48 hrs relative to control
[18] = Inhibition of RTK/PI3K/AKT/mTOR signaling in human U87 cells assessed as up regulation of MYH15 gene expression at cytotoxic IC50 measured after 48 hrs relative to control
[19] = Inhibition of RTK/PI3K/AKT/mTOR signaling in human U87 cells assessed as up regulation of PDGFRL gene expression at cytotoxic IC50 measured after 48 hrs relative to control
[20] = Inhibition of RTK/PI3K/AKT/mTOR signaling in human U87 cells assessed as up regulation of FUT3 gene expression at cytotoxic IC50 measured after 48 hrs relative to control
[21] = Inhibition of RTK/PI3K/AKT/mTOR signaling in human U87 cells assessed as up regulation of TMEM173 gene expression at cytotoxic IC50 measured after 48 hrs relative to control
[22] = Inhibition of RTK/PI3K/AKT/mTOR signaling in human U87 cells assessed as up regulation of keratin 15 gene expression at cytotoxic IC50 measured after 48 hrs relative to control
[23] = Inhibition of RTK/PI3K/AKT/mTOR signaling in human U87 cells assessed as up regulation of pyruvate dehydrogenase kinase 3 gene expression at cytotoxic IC50 measured after 48 hrs relative to control
[24] = Inhibition of RTK/PI3K/AKT/mTOR signaling in human U87 cells assessed as up regulation of CDK5 regulatory subunit associated protein 3 gene expression at cytotoxic IC50 measured after 48 hrs relative to control
[25] = Inhibition of RTK/PI3K/AKT/mTOR signaling in human U87 cells assessed as up regulation of forkhead box D1 gene expression at cytotoxic IC50 measured after 48 hrs relative to control
[26] = Inhibition of RTK/PI3K/AKT/mTOR signaling in human U87 cells assessed as up regulation of MAGE family member F1 gene expression at cytotoxic IC50 measured after 48 hrs relative to control
[27] = Inhibition of RTK/PI3K/AKT/mTOR signaling in human U87 cells assessed as up regulation of ribosome production factor 2 homolog gene expression at cytotoxic IC50 measured after 48 hrs relative to control
[28] = Inhibition of RTK/PI3K/AKT/mTOR signaling in human U87 cells assessed as up regulation of nipsnap homolog 1 gene expression at cytotoxic IC50 measured after 48 hrs relative to control
[29] = Inhibition of RTK/PI3K/AKT/mTOR signaling in human U87 cells assessed as up regulation of ZBTB4 gene expression at cytotoxic IC50 measured after 48 hrs relative to control
[30] = Inhibition of RTK/PI3K/AKT/mTOR signaling in human U87 cells assessed as up regulation of RNF220 gene expression at cytotoxic IC50 measured after 48 hrs relative to control
[31] = Inhibition of RTK/PI3K/AKT/mTOR signaling in human U87 cells assessed as up regulation of CD9 gene expression at cytotoxic IC50 measured after 48 hrs relative to control
[32] = Inhibition of RTK/PI3K/AKT/mTOR signaling in human U87 cells assessed as up regulation of HNRNPK gene expression at cytotoxic IC50 measured after 48 hrs relative to control

CC(=O)C(=NNc1ccccc1C#N)C(C)=O
log2FC [1]: -2.13 | log2FC [2]: -1.82 | log2FC [3]: -1.61 | log2FC [4]: -1.41 | log2FC [5]: -1.31 | log2FC [6]: -1.23 | log2FC [7]: -0.946 | log2FC [8]: -0.873 | log2FC [9]: -0.799 | log2FC [10]: -0.781 | log2FC [11]: -0.675 | log2FC [12]: -0.619 | log2FC [13]: -0.609 | log2FC [14]: -0.585 | log2FC [15]: -0.574 | log2FC [16]: -0.539 | log2FC [17]: -0.425 | log2FC [18]: 2.79 | log2FC [19]: 2.18 | log2FC [20]: 2 | log2FC [21]: 1.89 | log2FC [22]: 1.33 | log2FC [23]: 1.25 | log2FC [24]: 1.1 | log2FC [25]: 0.903 | log2FC [26]: 0.68 | log2FC [27]: 0.648 | log2FC [28]: 0.647 | log2FC [29]: 0.612 | log2FC [30]: 0.611 | log2FC [31]: 0.451 | log2FC [32]: 0.353
